# Assay results taken from the supplement of paper PMC8728848.
# This is one part of the list.
# B1: GS7807G-bfa-506-18-506 (Bacteroides fragilis) (protein)
# chain: ASCDKFDEINTDPDATTKVTSSLLATGLLLDITSSSASKSFIYDELLAKQMAWGESMEDYQYNVFGRSGFGGYTTLINAQKMVESVSDDNVNAYDGLAHFIKAYKIFYMSMEMGDLPYEEALQGELGLVRPKYNTQKEVMNFILSDLETAYELFSTAKDFDGDPILGGSISKWKKATTAFQLKVLMHLSKKESDADLKVKERFARIVASGSLMESNEDNLQMKYADKANTVYPFHNTNTKHAGYAMLSTMLIDKFKATGDIRMFYYAKPAKAKLNEGVTADSWDAYIGTDPSLPFEQIEKAYATEQYSGFNARYTDYPSGEPVVRLGYAEQNFILAEAAVRGWISGDASAYYKKAIRAHMEFIASNTPDEEVYHHGHPITEEAIAAFLETPAIQLSGEKEEDIEKILTQRYLASFMQHPYDVYYDYRRTGYPVLPINPATNRNTMNDRLPMRWMYPKSESDYNLEHQNEALERQFGGVDDVNKLMWILQ
# Legend:
# Experiment in all cases: glycan array binding signal (z-score within array); higher = stronger binding
# Conditions in all cases: glycan notation: IUPAC condensed, linker removed
# [1] = target: Neu5Ac(a2-6)GlcNAc(b1-4)GlcNAc(b1-4)GlcNAc
# How it was run: (§1)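 Glycan array data were curated from 3228 arrays in the Consortium for Functional Glycomics database and kept only where the protein sequence was available. Glycan names were converted to IUPAC-condensed notation, and columns mapping to the same glycan were averaged. The binding signal is a within-array Z-score, averaged across arrays of the same protein sequence at different concentrations or buffers and across linkers. Negative Z-scores can be read as non-binding.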
# [2] = target: Neu5Ac(a2-8)Neu5Ac
# How it was run: as §1
# [3] = target: Neu5Ac(a2-8)Neu5Ac(a2-3)Gal(b1-3)GalNAc(b1-4)[Neu5Ac(a2-3)]Gal(b1-4)Glc
# How it was run: as §1
# [4] = target: Neu5Ac(a2-8)Neu5Ac(a2-3)Gal(b1-3)GalNAc(b1-4)[Neu5Ac(a2-8)Neu5Ac(a2-3)]Gal(b1-4)Glc
# How it was run: as §1
# [5] = target: Neu5Ac(a2-8)Neu5Ac(a2-3)Gal(b1-4)Glc
# How it was run: as §1
# [6] = target: Neu5Ac(a2-8)Neu5Ac(a2-3)Gal(b1-4)GlcNAc
# How it was run: as §1
# [7] = target: Neu5Ac(a2-8)Neu5Ac(a2-3)[Gal(b1-3)GalNAc(b1-4)]Gal(b1-4)Glc
# How it was run: as §1
# [8] = target: Neu5Ac(a2-8)Neu5Ac(a2-3)[GalNAc(b1-4)]Gal(b1-4)Glc
# How it was run: as §1
# [9] = target: Neu5Ac(a2-8)Neu5Ac(a2-8)Neu5Ac
# How it was run: as §1
# [10] = target: Neu5Ac(a2-8)Neu5Ac(a2-8)Neu5Ac(a2-3)Gal(b1-4)Glc
# How it was run: as §1
# [11] = target: Neu5Ac(a2-8)Neu5Ac(a2-8)Neu5Ac(a2-3)[Gal(b1-3)GalNAc(b1-4)]Gal(b1-4)Glc
# How it was run: as §1
# [12] = target: Neu5Ac(a2-8)Neu5Ac(a2-8)Neu5Ac(a2-3)[GalNAc(b1-4)]Gal(b1-4)Glc
# How it was run: as §1
# [13] = target: Neu5Ac(a2-8)Neu5Ac(a2-8)Neu5Ac(a2-8)Neu5Ac(a2-3)[GalNAc(b1-4)]Gal(b1-4)Glc
# How it was run: as §1
# [14] = target: Neu5Ac(a2-8)Neu5Gc(a2-3)Gal(b1-4)GlcNAc
# How it was run: as §1
# [15] = target: Neu5Ac(b2-6)Gal(b1-4)GlcNAc
# How it was run: as §1
# [16] = target: Neu5Ac(b2-6)GalNAc
# How it was run: as §1
# [17] = target: Neu5Ac9Ac(a2-3)Gal(b1-3)GlcNAc
# How it was run: as §1
# [18] = target: Neu5Ac9Ac(a2-3)Gal(b1-4)GlcNAc
# How it was run: as §1
# [19] = target: Neu5Ac9Ac(a2-6)Gal(b1-4)GlcNAc
# How it was run: as §1
# [20] = target: Neu5Gc(a2-3)Gal(b1-3)GlcNAc
# How it was run: as §1
# [21] = target: Neu5Gc(a2-3)Gal(b1-3)[Fuc(a1-4)]GlcNAc
# How it was run: as §1
# [22] = target: Neu5Gc(a2-3)Gal(b1-4)Glc
# How it was run: as §1
# [23] = target: Neu5Gc(a2-3)Gal(b1-4)GlcNAc
# How it was run: as §1
# [24] = target: Neu5Gc(a2-3)Gal(b1-4)GlcNAc(b1-3)Gal(b1-4)GlcNAc(b1-2)Man(a1-3)[Neu5Gc(a2-3)Gal(b1-4)GlcNAc(b1-3)Gal(b1-4)GlcNAc(b1-2)Man(a1-6)]Man(b1-4)GlcNAc(b1-4)GlcNAc
# How it was run: as §1
# [25] = target: Neu5Gc(a2-3)Gal(b1-4)[Fuc(a1-3)]GlcNAc
# How it was run: as §1
# [26] = target: Neu5Gc(a2-6)Gal(b1-4)GlcNAc
# How it was run: as §1
# [27] = target: Neu5Gc(a2-6)GalNAc
# How it was run: as §1
# [28] = target: Neu5Gc(a2-8)Neu5Ac(a2-3)Gal(b1-4)GlcNAc
# How it was run: as §1
# [29] = target: Neu5Gc(a2-8)Neu5Gc(a2-3)Gal(b1-4)GlcNAc
# How it was run: as §1
# [30] = target: Neu5Gc(a2-8)Neu5Gc(a2-3)Gal(b1-4)GlcNAc(b1-3)Gal(b1-4)GlcNAc
# How it was run: as §1
# [31] = target: Neu5Gc(a2-8)Neu5Gc(a2-6)Gal(b1-4)GlcNAc
# How it was run: as §1
# [32] = target: Neu5Gc(b2-6)Gal(b1-4)GlcNAc
# How it was run: as §1
binder,measurement,setting,value
B1,glycan array binding signal (z-score),[1],-0.933
same,glycan array binding signal (z-score),[2],-0.436
same,glycan array binding signal (z-score),[3],-0.336
same,glycan array binding signal (z-score),[4],0.197
same,glycan array binding signal (z-score),[5],-0.836
same,glycan array binding signal (z-score),[6],-0.834
same,glycan array binding signal (z-score),[7],0.482
same,glycan array binding signal (z-score),[8],1.7
same,glycan array binding signal (z-score),[9],-0.389
same,glycan array binding signal (z-score),[10],-0.357
same,glycan array binding signal (z-score),[11],-0.149
same,glycan array binding signal (z-score),[12],-0.032
same,glycan array binding signal (z-score),[13],2.07
same,glycan array binding signal (z-score),[14],-1.05
same,glycan array binding signal (z-score),[15],-0.477
same,glycan array binding signal (z-score),[16],-0.877
same,glycan array binding signal (z-score),[17],-0.645
same,glycan array binding signal (z-score),[18],-1.05
same,glycan array binding signal (z-score),[19],-0.283
same,glycan array binding signal (z-score),[20],-0.768
same,glycan array binding signal (z-score),[21],-0.982
same,glycan array binding signal (z-score),[22],-0.637
same,glycan array binding signal (z-score),[23],-1.08
same,glycan array binding signal (z-score),[24],-0.41
same,glycan array binding signal (z-score),[25],-0.465
same,glycan array binding signal (z-score),[26],-0.771
same,glycan array binding signal (z-score),[27],-0.111
same,glycan array binding signal (z-score),[28],-0.942
same,glycan array binding signal (z-score),[29],-0.712
same,glycan array binding signal (z-score),[30],-0.581
same,glycan array binding signal (z-score),[31],-0.393
same,glycan array binding signal (z-score),[32],2.12

# 2 entries from above in another layout:
binder | measurement | setting | value
B1 | glycan array binding signal (z-score) | [12] | -0.032
same | glycan array binding signal (z-score) | [22] | -0.637
